PubChem BioAssay AID504786 | Drosophila RNAi Screening Center, 2011
The screen tested about 21,000 reagents; shown is an unselected part of those with a known target gene and a result. 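Primary screen; positive scores mean lost reporter signal, so the sign may be inverted from the usual convention.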

Aim: 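Positive regulators of HIF-driven reporter output in Drosophila cells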 (primary screen)
System: Drosophila S2 cells with a stable HIF luciferase reporter
Knock-down reagent: long dsRNA against Drosophila genes, about 0.2 µg dsRNA per well of a 384-well plate
Time to read-out: three days of knock-down, then 20 h of DFO before reading
Conditions: desferrioxamine (DFO) at 100 µM, an iron chelator that mimics hypoxia, for 20 h
Read-out: 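HIF reporter luminescence in cells given 100 µM DFO for 20 h, using the mouse ldh-a hypoxia-response element, scored as per-plate z-scores; higher means greater loss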
Direction: z-score: higher = stronger loss of HIF reporter signal

SsRbeta [DRSC11290] — z-score, replicate 1: -0.4; z-score, replicate 2: -0.6
Yif1 [DRSC15817] — z-score, replicate 1: -0.5; z-score, replicate 2: -0.3
Src42A [DRSC04915] — z-score, replicate 1: 0; z-score, replicate 2: -0.6
MED10 [DRSC10474] — z-score, replicate 1: 0.2; z-score, replicate 2: 0.6
Prim1 [DRSC11137] — z-score, replicate 1: 0.8; z-score, replicate 2: 1.2
CG14406 [DRSC19592] — z-score, replicate 1: 0.1; z-score, replicate 2: 0.8
CG15362 [DRSC00392] — z-score, replicate 1: 0; z-score, replicate 2: -0.5
GluRIID [DRSC16723] — z-score, replicate 1: -0.3; z-score, replicate 2: -0.3
Ctps [DRSC09342] — z-score, replicate 1: 1.2; z-score, replicate 2: 1.3
Ctps [DRSC10728] — z-score, replicate 1: -0.4; z-score, replicate 2: -0.5
Ctps [DRSC10729] — z-score, replicate 1: 1.2; z-score, replicate 2: 2.7
CG12662 [DRSC17865] — z-score, replicate 1: -0.3; z-score, replicate 2: 0
ste24b [DRSC07315] — z-score, replicate 1: -0.2; z-score, replicate 2: 0.3
tefu [DRSC16060] — z-score, replicate 1: -0.5; z-score, replicate 2: -0.1
CG8908 [DRSC07297] — z-score, replicate 1: -0.3; z-score, replicate 2: -0.2
CtsL1 [DRSC05462] — z-score, replicate 1: -0.3; z-score, replicate 2: 0
CtsL1 [DRSC07363] — z-score, replicate 1: -0.3; z-score, replicate 2: -0.6
CG9003 [DRSC07317] — z-score, replicate 1: -0.4; z-score, replicate 2: -0.9
CG14881 [DRSC15005] — z-score, replicate 1: -0.3; z-score, replicate 2: 0.1
CG13727 [DRSC10055] — z-score, replicate 1: -0.1; z-score, replicate 2: -0.2
Cyp4s3 [DRSC20241] — z-score, replicate 1: -0.4; z-score, replicate 2: 0
TotF [DRSC02305] — z-score, replicate 1: -0.1; z-score, replicate 2: 0
Lcp65Ag3 [DRSC10345] — z-score, replicate 1: -0.4; z-score, replicate 2: -0.7
CG10019 [DRSC00279] — z-score, replicate 1: 0.2; z-score, replicate 2: 0.8
Cyp18a1 [DRSC20235] — z-score, replicate 1: -0.6; z-score, replicate 2: 0
PGRP-LB [DRSC14926] — z-score, replicate 1: 0.3; z-score, replicate 2: 0.3
CG14205 [DRSC19560] — z-score, replicate 1: -0.3; z-score, replicate 2: 0.2
